Assay results from the supplement of paper PMC6078165.

Test system: HCC1143
Experiment: relative JC-1 red fluorescence (viability) vs pre-drug, coculture with fibroblast (fraction); higher = more viable cancer cells
Settings: 100 µM
Protocol: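 JC-1 labelled TNBC cells cocultured 1:1 (1,500 cells each) with CellTrace Violet stained primary or stromal fibroblasts in 384-well plates in FluoroBrite medium, treated with one of 42 anticancer drugs at 0.1, 1, 10 or 100 uM. JC-1 red fluorescence (mitochondrial integrity in cancer cells only) was read by plate reader every 8 h for 72 h. Values are normalised to each well's pre-drug value. The stock of one drug was tenfold lower, so its dose labels may be too high.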

CC[C@]1(O)C[C@H]2CN(CCc3c([nH]c4ccccc34)[C@@](C(=O)OC)(c3cc4c(cc3OC)N(C=O)[C@H]3[C@@](O)(C(=O)OC)[C@H](OC(C)=O)[C@]5(CC)C=CCN6CC[C@]43[C@@H]65)C2)C1 [Vincristine]
relative JC-1 red fluorescence
Settings | 8 h | 16 h | 24 h | 32 h | 40 h | 48 h | 56 h | 64 h | 72 h
coculture fibroblast: C12385 | 0.876 | 0.833 | 0.797 | 0.7573 | 0.73492 | 0.708 | 0.686 | 0.655 | 0.625
coculture fibroblast: H6013 | 0.795 | 0.736 | 0.732 | 0.745 | 0.654 | 0.636 | 0.601 | 0.579 | 0.615
coculture fibroblast: H6019 | 0.915 | 0.879 | 0.849 | 0.8 | 0.777 | 0.755 | 0.705 | 0.6766 | 0.651
coculture fibroblast: H6076 | 0.815 | 0.881 | 0.8655 | 0.784 | 0.784 | 0.766 | 0.7369 | 0.7157 | 0.708
coculture fibroblast: H6231 | 0.869 | 0.775 | 0.828 | 0.765 | 0.856 | 0.827 | 0.786 | 0.749 | 0.736
coculture fibroblast: HADF | 0.784 | 0.744 | 0.718 | 0.737 | 0.647 | 0.625 | 0.594 | 0.578 | 0.599
coculture fibroblast: HCFa | 0.811 | 0.757 | 0.742 | 0.763 | 0.68 | 0.666 | 0.641 | 0.621 | 0.67
coculture fibroblast: HCPF | 0.8117 | 0.885 | 0.859 | 0.687 | 0.823 | 0.799 | 0.774 | 0.743 | 0.71
coculture fibroblast: HHSteC | 0.8488 | 0.794 | 0.789 | 0.784 | 0.728 | 0.718 | 0.682 | 0.657 | 0.646
coculture fibroblast: HMF | 0.813 | 0.881 | 0.859 | 0.731 | 0.802 | 0.777 | 0.745 | 0.72 | 0.685
coculture fibroblast: HPFa | 0.94141 | 0.8939 | 0.8852 | 0.822 | 0.789 | 0.793 | 0.772 | 0.757 | 0.733
coculture fibroblast: HUF | 0.9172 | 0.865 | 0.845 | 0.798 | 0.784 | 0.761 | 0.714 | 0.687 | 0.656
coculture fibroblast: Hs5 | 0.8408 | 0.958 | 0.919 | 0.8359 | 0.8388 | 0.817 | 0.792 | 0.752 | 0.74
coculture fibroblast: Hs27A | 0.77 | 0.715 | 0.682 | 0.747 | 0.602 | 0.5728 | 0.5524 | 0.5419 | 0.6455
coculture fibroblast: Hs343T | 0.822 | 0.915 | 0.878 | 0.767 | 0.809 | 0.792 | 0.752 | 0.728 | 0.703
coculture fibroblast: WS1 | 0.878 | 0.847 | 0.841 | 0.814 | 0.778 | 0.76 | 0.724 | 0.689 | 0.659

The reference is the same well before dosing, and untreated signal decays as well.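 Fibroblast labels denote human fibroblasts, mainly primary ones from uterus (C12385, HUF), lung (H6013), bone (Hs27A), adrenal (HADF) and skin (WS1), plus mammary HMF and breast cancer-associated Hs343T. Cancer cells are basal-like or mesenchymal-like triple-negative breast cancer lines. A hit is a response shift exceeding 3x replicate standard deviation. The tissue of the other fibroblasts is not given here.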
